This note sets out measurements from paper PMC4625211, “Putative Breast Cancer Driver Mutations in TBX3 Cause Impaired Transcriptional Repression”.

For some assays here: The comparison behind a weaker result is the experiment's own reference, which may not be listed here. For some assays here: Where a protein sequence is shown, tags need not be part of it. For some assays here: For at least one entry, the source does not settle the construct or the ends of the probe. For some assays here: No signal at the amounts used counts as a negative.

Data set [1] addresses T1, GST-TBX3(1-342) H187Y (human) (UniProt O15119).
T1 sequence (looked up): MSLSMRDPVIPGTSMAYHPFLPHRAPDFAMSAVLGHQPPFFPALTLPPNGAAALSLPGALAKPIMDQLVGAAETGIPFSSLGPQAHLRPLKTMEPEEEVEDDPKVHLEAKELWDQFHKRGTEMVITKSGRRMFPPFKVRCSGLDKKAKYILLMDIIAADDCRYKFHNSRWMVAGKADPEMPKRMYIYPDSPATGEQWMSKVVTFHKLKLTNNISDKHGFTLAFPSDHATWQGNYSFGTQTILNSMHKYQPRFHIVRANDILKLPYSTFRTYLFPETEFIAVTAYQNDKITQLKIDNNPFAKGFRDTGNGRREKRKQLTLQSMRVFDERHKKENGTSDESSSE
The experiment in a line: EMSA. The conditions noted are these: faint, obvious only when overexposed; 20 mM HEPES (pH not given), 100 mM KCl, 1 mM DTT, 0.25 mM EDTA, 0.01% NP-40, 1 mM MgCl2, 8% glycerol, 100 ug/ml BSA, 1 mg/ml poly(dI-dC), 15 C, 1 h; 6% gel, 1x TBE; recombinant protein; residues 1-342; protein details: N-terminal GST (pGEX-2TK); label: 5' digoxigenin. A general note: Mobility shift assays separate free from complexed probe on a gel.

In data set [2] the target is GST-TBX3 Y163fs2* (human) (UniProt O15119). The data set can be described thus: EMSA. The conditions noted are these: 20 mM HEPES (pH not given), 100 mM KCl, 1 mM DTT, 0.25 mM EDTA, 0.01% NP-40, 1 mM MgCl2, 8% glycerol, 100 ug/ml BSA, 1 mg/ml poly(dI-dC), 15 C, 1 h; 6% gel, 1x TBE; recombinant protein; residues 1-162; protein details: N-terminal GST (pGEX-2TK); label: 5' digoxigenin.

Take “AATTTCACACCTAGGTGTGAAATT (double strand)”: the binding result was “binds more weakly” in data set [1] and “no binding” in data set [2].
